# Reference: the supplement of paper PMC10849652
# Amino acid sequences for entries named in this document (tags omitted). A change or cut given only in a name is not applied to a line headed by its entry.
# UniProt P42773: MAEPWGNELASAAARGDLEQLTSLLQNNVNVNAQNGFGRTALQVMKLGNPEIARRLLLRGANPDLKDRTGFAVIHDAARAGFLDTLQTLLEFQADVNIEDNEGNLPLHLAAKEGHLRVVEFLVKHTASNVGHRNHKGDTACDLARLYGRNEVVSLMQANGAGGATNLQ
# UniProt P48960: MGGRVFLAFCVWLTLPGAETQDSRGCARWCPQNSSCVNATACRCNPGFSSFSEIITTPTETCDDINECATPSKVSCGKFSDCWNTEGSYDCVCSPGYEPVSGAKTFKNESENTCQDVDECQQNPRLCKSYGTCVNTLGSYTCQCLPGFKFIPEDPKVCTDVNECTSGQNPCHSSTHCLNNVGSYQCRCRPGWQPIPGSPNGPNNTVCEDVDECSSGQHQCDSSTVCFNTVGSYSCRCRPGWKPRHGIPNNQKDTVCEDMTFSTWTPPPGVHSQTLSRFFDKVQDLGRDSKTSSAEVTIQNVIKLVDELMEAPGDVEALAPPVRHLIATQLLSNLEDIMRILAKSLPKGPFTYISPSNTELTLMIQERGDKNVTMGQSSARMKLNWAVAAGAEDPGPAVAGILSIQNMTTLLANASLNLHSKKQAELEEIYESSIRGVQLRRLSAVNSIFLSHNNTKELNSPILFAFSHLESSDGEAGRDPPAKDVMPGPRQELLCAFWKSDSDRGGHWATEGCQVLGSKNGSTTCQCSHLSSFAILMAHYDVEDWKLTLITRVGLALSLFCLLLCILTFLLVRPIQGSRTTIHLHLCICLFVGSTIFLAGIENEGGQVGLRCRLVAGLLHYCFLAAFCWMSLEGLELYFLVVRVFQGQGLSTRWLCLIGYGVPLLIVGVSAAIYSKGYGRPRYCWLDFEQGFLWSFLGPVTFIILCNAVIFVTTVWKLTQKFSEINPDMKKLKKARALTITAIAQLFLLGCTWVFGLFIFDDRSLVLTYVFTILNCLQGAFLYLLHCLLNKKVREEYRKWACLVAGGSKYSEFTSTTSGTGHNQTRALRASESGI
# UniProt P57076: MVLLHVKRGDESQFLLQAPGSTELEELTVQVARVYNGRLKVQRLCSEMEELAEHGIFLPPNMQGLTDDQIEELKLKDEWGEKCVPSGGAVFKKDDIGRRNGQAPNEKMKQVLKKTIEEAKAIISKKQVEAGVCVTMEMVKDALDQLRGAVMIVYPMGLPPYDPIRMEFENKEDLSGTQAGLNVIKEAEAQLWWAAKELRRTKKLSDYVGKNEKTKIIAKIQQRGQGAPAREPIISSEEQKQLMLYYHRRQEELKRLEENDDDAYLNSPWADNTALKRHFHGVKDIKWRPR
# UniProt Q8N2Z9: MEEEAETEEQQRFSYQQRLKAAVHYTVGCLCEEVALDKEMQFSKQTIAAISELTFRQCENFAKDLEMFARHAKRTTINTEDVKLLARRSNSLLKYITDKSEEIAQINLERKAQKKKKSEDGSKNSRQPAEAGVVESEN
# UniProt Q8IWY9: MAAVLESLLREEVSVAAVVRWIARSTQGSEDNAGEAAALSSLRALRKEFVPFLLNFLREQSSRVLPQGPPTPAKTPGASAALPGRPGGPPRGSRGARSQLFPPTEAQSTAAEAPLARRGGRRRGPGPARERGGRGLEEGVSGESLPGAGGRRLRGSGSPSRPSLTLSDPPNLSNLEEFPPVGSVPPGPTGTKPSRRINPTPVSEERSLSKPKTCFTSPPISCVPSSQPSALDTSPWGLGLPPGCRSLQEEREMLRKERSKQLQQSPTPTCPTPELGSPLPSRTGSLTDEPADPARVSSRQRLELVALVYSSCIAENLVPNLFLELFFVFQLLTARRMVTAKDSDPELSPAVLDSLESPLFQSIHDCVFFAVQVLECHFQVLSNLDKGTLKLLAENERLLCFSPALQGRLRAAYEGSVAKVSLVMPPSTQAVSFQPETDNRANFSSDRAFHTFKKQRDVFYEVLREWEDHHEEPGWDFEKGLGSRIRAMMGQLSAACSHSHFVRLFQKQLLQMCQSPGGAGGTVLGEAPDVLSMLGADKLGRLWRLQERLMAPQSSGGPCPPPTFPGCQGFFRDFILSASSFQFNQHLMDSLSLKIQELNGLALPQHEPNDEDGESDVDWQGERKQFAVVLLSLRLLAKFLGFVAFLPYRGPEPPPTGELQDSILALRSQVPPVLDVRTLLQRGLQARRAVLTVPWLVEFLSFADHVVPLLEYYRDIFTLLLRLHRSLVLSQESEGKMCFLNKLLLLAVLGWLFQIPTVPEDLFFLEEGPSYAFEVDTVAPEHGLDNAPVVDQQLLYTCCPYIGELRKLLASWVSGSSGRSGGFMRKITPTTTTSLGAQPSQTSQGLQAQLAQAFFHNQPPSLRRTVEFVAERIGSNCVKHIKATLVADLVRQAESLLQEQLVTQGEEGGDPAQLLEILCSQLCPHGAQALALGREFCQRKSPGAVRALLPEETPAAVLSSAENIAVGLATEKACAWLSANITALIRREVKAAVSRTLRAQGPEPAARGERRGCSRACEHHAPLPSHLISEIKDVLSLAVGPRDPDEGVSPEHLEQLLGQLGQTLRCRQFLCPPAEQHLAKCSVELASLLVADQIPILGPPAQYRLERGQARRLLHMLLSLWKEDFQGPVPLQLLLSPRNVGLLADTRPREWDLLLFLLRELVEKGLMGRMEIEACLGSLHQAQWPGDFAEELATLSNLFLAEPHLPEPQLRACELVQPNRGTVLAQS
# UniProt P60953, whole entry, looked up: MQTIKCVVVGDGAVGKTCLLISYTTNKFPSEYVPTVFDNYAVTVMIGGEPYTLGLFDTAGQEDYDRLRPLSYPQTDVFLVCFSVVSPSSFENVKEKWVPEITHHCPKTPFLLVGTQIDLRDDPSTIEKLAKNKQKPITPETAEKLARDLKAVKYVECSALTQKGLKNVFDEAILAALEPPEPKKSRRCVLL
# UniProt Q92879: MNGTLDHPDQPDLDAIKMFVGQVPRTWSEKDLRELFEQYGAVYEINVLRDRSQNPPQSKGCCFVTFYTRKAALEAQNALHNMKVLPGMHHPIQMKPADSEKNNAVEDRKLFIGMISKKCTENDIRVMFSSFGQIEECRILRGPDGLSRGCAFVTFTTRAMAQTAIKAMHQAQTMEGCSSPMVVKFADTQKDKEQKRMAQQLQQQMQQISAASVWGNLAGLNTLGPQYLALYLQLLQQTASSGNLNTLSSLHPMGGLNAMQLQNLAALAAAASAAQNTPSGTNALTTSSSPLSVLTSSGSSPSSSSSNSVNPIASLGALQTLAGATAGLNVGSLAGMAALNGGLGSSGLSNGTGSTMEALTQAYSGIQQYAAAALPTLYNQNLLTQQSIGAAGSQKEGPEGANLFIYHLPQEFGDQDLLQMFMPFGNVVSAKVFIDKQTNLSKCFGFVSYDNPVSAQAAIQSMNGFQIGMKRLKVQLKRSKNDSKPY
# UniProt P30260, whole entry, looked up: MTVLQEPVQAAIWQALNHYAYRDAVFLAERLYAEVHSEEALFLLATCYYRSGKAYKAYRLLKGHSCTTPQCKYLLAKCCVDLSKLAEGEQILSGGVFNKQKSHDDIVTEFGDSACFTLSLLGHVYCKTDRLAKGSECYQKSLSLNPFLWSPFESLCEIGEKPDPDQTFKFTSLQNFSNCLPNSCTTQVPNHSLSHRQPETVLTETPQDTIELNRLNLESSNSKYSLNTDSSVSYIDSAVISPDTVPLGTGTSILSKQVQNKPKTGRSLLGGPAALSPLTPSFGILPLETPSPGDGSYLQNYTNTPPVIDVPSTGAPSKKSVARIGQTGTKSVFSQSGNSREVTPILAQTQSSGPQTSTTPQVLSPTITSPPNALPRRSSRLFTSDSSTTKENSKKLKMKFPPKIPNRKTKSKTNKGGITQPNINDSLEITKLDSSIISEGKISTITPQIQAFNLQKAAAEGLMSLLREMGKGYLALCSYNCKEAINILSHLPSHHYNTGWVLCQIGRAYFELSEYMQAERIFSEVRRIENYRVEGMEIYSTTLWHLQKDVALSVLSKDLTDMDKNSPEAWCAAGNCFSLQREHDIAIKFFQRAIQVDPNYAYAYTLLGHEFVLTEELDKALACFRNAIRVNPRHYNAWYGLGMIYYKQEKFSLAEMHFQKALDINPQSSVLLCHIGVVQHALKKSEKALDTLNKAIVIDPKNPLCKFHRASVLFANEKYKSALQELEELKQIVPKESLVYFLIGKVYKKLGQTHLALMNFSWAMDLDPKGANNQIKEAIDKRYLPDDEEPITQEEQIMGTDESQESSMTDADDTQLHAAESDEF
# UniProt P49918: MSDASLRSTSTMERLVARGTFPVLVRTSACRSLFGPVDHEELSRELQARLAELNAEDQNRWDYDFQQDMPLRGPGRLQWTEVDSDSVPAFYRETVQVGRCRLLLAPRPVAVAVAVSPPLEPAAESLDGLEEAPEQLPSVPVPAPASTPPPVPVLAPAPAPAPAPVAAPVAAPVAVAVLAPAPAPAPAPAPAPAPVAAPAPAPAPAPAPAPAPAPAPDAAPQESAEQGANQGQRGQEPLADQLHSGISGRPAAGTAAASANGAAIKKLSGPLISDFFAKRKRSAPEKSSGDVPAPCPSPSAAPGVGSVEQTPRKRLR
# UniProt Q9BS16: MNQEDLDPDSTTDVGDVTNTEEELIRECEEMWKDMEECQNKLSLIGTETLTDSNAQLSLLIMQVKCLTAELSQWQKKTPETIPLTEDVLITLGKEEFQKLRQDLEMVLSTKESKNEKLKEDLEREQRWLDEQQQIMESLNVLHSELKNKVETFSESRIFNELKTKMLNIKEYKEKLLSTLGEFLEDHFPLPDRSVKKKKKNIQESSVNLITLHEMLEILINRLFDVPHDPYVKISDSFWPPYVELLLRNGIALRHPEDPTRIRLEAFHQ
# UniProt Q9UKY7: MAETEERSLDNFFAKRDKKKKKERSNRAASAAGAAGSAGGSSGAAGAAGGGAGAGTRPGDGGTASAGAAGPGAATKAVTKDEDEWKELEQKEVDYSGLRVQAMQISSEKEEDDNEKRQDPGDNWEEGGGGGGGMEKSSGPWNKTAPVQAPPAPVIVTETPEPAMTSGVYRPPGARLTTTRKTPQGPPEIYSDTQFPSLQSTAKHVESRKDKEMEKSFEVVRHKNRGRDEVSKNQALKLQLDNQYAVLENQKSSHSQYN
# UniProt Q99459: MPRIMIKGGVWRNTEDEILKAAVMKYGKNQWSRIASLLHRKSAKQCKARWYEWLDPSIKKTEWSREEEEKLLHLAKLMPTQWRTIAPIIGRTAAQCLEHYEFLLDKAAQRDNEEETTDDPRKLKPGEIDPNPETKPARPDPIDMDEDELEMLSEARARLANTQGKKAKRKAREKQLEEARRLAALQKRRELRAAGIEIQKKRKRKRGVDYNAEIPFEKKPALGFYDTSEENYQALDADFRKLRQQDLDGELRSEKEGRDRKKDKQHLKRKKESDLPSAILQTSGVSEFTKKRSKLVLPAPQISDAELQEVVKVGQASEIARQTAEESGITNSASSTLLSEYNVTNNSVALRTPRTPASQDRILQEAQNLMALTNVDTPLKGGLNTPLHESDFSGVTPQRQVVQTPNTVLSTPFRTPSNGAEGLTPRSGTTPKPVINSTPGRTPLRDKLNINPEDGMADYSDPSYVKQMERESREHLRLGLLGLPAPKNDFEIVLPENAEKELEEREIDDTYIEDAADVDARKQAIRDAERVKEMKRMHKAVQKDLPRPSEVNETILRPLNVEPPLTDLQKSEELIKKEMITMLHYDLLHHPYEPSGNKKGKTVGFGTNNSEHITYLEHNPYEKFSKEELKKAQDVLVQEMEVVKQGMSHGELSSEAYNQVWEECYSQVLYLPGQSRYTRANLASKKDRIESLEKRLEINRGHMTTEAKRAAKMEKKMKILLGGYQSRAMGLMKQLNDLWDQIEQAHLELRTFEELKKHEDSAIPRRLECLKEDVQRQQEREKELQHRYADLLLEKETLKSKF
# UniProt O00748: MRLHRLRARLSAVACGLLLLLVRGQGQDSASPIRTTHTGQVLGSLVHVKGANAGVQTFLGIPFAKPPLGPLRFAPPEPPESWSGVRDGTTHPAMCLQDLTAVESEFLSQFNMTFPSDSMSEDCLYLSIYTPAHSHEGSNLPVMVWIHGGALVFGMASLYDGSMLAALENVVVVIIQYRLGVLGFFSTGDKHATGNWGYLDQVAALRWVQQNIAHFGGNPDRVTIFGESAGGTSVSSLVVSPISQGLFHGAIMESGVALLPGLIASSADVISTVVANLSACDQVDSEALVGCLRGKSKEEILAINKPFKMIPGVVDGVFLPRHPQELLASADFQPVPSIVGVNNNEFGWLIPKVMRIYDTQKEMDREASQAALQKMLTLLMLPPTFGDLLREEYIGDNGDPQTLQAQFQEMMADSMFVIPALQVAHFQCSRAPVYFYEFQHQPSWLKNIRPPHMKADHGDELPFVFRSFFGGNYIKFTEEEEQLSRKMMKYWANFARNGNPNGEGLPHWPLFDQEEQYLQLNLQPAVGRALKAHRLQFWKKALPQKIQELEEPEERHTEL
# UniProt O14519: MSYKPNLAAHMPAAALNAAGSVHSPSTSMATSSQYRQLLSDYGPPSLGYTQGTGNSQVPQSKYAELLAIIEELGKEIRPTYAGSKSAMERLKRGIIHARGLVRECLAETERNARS
# The list shows a part of the results.
# What was measured:
# Assay in all cases: log2 fold change, soluble protein after heating vs DMSO (PISA); higher = thermal stabilisation; K562 lysate, 10 uM; active = over 0.2 and 3.5 SD of the protein, either way, in both replicates (recomputed)
# [1] = compound: CS(=O)(=O)CCNCc1ccc(-c2ccc3ncnc(Nc4ccc(OCc5cccc(F)c5)c(Cl)c4)c3c2)o1 [lapatinib]
# Method in brief: (§1)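 K562 pellets were dounce-homogenised in PBS pH 7.4 containing 1 mM MgCl2, and the crude extract, at 1 mg/mL protein, was exposed to 10 μM compound for 30 min. Aliquots were heated for 3 min across 48°C-58°C, pooled, brought to 0.5% NP-40 at 4°C and spun at 21,000xg for 90 min, with the supernatant taken as soluble protein. TMTpro 16plex LC-MS/MS with equalised channel sums quantified that protein. Values are log-two fold changes in thermal stability relative to solvent controls, taken from duplicates.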
# [2] = compound: CS(=O)(=O)N1CCN(Cc2cc3nc(-c4cccc5[nH]ncc45)nc(N4CCOCC4)c3s2)CC1 [pictilisib]
# Method in brief: as §1
# [3] = compound: C[C@@H](Oc1cc(-c2cnn(C3CCNCC3)c2)cnc1N)c1c(Cl)ccc(F)c1Cl [crizotinib]
# Method in brief: as §1
# [4] = compound: C[C@H](C1=CC=C(C=C1)C(=O)NC2=C3C=CNC3=NC=C2)N
# Method in brief: as §1
# [5] = compound: C[C@H](Nc1ncnc2nc[nH]c12)c1cc2cccc(Cl)c2c(=O)n1-c1ccccc1 [duvelisib]
# Method in brief: as §1
# [6] = compound: Cc1cc(Nc2cc(CN3CCOCC3)c3nc(C)c(Cc4ccc(Cl)cc4F)n3n2)n[nH]1 [gandotinib]
# Method in brief: as §1
# [7] = compound: Cc1cc(Nc2cc(N3CCN(C)CC3)nc(Sc3ccc(NC(=O)C4CC4)cc3)n2)n[nH]1 [tozasertib]
# Method in brief: as §1
# [8] = compound: Cc1ccc(-n2nc(C(C)(C)C)cc2NC(=O)Nc2ccc(OCCN3CCOCC3)c3ccccc23)cc1 [doramapimod]
# Method in brief: as §1
# [9] = compound: Cc1ccc(NC(=O)c2ccc(CN3CC[C@H](N(C)C)C3)c(C(F)(F)F)c2)cc1Nc1nccc(-c2cncnc2)n1 [bafetinib]
# Method in brief: as §1
# [10] = compound: Cc1cccc(CC(=O)N2CCc3c2ccc(-c2cn(C)c4ncnc(N)c24)c3F)n1
# Method in brief: as §1
# [11] = compound: Cc1cn(-c2cc(NC(=O)c3ccc(C)c(Nc4nccc(-c5cccnc5)n4)c3)cc(C(F)(F)F)c2)cn1 [nilotinib]
# Method in brief: as §1
# [12] = compound: Cc1nc(Nc2n[nH]c3c2CN(C(=O)N[C@H](CN(C)C)c2ccccc2)C3(C)C)c2sccc2n1
# Method in brief: as §1
# [13] = compound: Cc1nc(Nc2ncc(C(=O)Nc3c(C)cccc3Cl)s2)cc(N2CCN(CCO)CC2)n1 [dasatinib]
# Method in brief: as §1
# [14] = compound: Cc1ncc(-c2ccnc(Nc3ccc(S(C)(=O)=O)cc3)n2)n1C(C)C
# Method in brief: as §1
# [15] = compound: Cn1cc(-c2ccc3c(c2)CCN3C(=O)Cc2cccc(C(F)(F)F)c2)c2c(N)ncnc21
# Method in brief: as §1
# [16] = compound: Cn1cc(CNCC2CCN(c3ncc(C(=O)NO)cn3)CC2)c2ccccc21 [quisinostat]
# Method in brief: as §1
# [17] = compound: Cn1cncc1[C@@](N)(c1ccc(Cl)cc1)c1ccc2c(c1)c(-c1cccc(Cl)c1)cc(=O)n2C [tipifarnib]
# Method in brief: as §1
# [18] = compound: NC(=O)Nc1cc(-c2cccc(F)c2)sc1C(=O)N[C@H]1CCCNC1
# Method in brief: as §1
# [19] = compound: NC(=O)c1cnc(N[C@@H]2CCCC[C@@H]2N)nc1Nc1cccc(-n2nccn2)c1
# Method in brief: as §1
# [20] = compound: NC1(c2ccc(-c3nc4ccn5c(=O)[nH]nc5c4cc3-c3ccccc3)cc2)CCC1
# Method in brief: as §1
Target,log2 fold change [1],log2 fold change [2],log2 fold change [3],log2 fold change [4],log2 fold change [5],log2 fold change [6],log2 fold change [7],log2 fold change [8],log2 fold change [9],log2 fold change [10],log2 fold change [11],log2 fold change [12],log2 fold change [13],log2 fold change [14],log2 fold change [15],log2 fold change [16],log2 fold change [17],log2 fold change [18],log2 fold change [19],log2 fold change [20]
CDKN2C (UniProt P42773),inactive: 0.078,inactive: 0.004,inactive: -0.02,inactive: 0.073,inactive: 0.053,inactive: -0.188,inactive: 0.136,inactive: 0.02,inactive: -0.033,inactive: -0.095,inactive: 0.068,inactive: 0.1,inactive: 0.022,inactive: 0.175,inactive: 0.055,inactive: 0.014,inactive: 0.08,inactive: -0.075,inactive: -0.04,inactive: 0.065
CD97 (UniProt P48960),inactive: 0.024,inactive: -0.018,inactive: 0.029,inactive: -0.024,inactive: 0.017,inactive: 0.031,inactive: -0.07,inactive: 0.031,inactive: 0.021,inactive: 0.026,inactive: -0.015,inactive: 0.032,inactive: -0.007,inactive: -0.055,inactive: -0.048,inactive: -0.074,inactive: -0.013,inactive: 0.009,inactive: -0.001,inactive: 0.279
CFAP298 (UniProt P57076),inactive: -0.007,inactive: -0.019,inactive: -0.035,inactive: -0.033,inactive: -0.011,inactive: -0.03,inactive: 0.014,inactive: 0.026,inactive: -0.051,inactive: 0.034,inactive: -0.02,inactive: -0.008,inactive: 0,inactive: 0.027,inactive: 0.044,inactive: -0.048,inactive: -0.009,inactive: 0.028,inactive: 0.006,inactive: -0.009
CENPS (UniProt Q8N2Z9),inactive: 0.046,inactive: 0.011,inactive: 0.008,inactive: 0.006,inactive: -0.029,inactive: 0.026,inactive: -0.069,inactive: -0.047,inactive: -0.085,inactive: 0.048,inactive: -0.194,inactive: 0.089,inactive: -0.048,inactive: 0.065,inactive: -0.013,inactive: -0.051,inactive: 0.055,inactive: 0.049,inactive: 0.077,inactive: -0.022
CDC42BPA isoform 6 (UniProt Q5VT25),inactive: -0.029,inactive: -0.041,inactive: -0.061,inactive: 0.024,inactive: -0.007,inactive: -0.05,inactive: 0.032,inactive: 0.075,inactive: -0.056,inactive: 0.03,inactive: -0.01,inactive: 0.003,inactive: 0.012,inactive: 0.013,inactive: 0.048,inactive: 0.025,inactive: 0,inactive: 0.004,inactive: -0.002,inactive: 0.024
CDAN1 (UniProt Q8IWY9),inactive: 0.009,inactive: -0.05,inactive: -0.038,inactive: 0,inactive: 0.026,inactive: -0.073,inactive: 0.068,inactive: -0.021,inactive: -0.056,inactive: 0.051,inactive: -0.029,inactive: 0.022,inactive: -0.055,inactive: -0.014,inactive: -0.037,inactive: -0.09,inactive: -0.026,inactive: 0.066,inactive: 0.017,inactive: -0.032
CDC42 isoform 1 (UniProt P60953),inactive: 0,inactive: -0.016,inactive: -0.057,inactive: -0.14,inactive: 0.072,inactive: 0.086,inactive: -0.011,inactive: 0.034,inactive: -0.055,inactive: 0.098,inactive: -0.008,inactive: 0.022,inactive: 0.007,inactive: 0.037,inactive: -0.043,inactive: -0.117,inactive: -0.004,inactive: -0.088,inactive: 0.02,inactive: -0.041
CELF1 isoform 4 (UniProt Q92879),inactive: 0.011,inactive: 0.023,inactive: 0.032,inactive: 0.021,inactive: -0.036,inactive: -0.028,inactive: 0.019,active: -0.605,inactive: -0.09,inactive: -0.018,inactive: -0.022,inactive: 0.042,inactive: -0.025,inactive: 0,inactive: 0,inactive: 0.021,inactive: -0.013,inactive: 0.037,inactive: 0.033,inactive: 0.067
CDC27 isoform 2 (UniProt P30260),inactive: -0.032,inactive: 0.02,inactive: -0.025,inactive: -0.012,inactive: 0.003,inactive: -0.021,inactive: 0.012,inactive: 0.021,inactive: -0.062,inactive: 0.029,inactive: 0.041,inactive: -0.025,inactive: -0.024,inactive: 0.022,inactive: 0.01,inactive: -0.014,inactive: -0.016,inactive: 0.007,inactive: 0,inactive: 0.005
CDKN1C (UniProt P49918),inactive: 0.027,inactive: -0.033,inactive: 0.105,inactive: -0.025,inactive: -0.035,inactive: -0.046,inactive: -0.095,inactive: -0.045,inactive: 0.049,inactive: 0.071,inactive: -0.054,inactive: -0.035,inactive: 0.083,inactive: 0.094,inactive: 0.055,inactive: 0.091,inactive: 0.037,inactive: -0.091,inactive: -0.101,inactive: 0.04
CENPK (UniProt Q9BS16),inactive: -0.145,inactive: -0.062,inactive: 0.02,inactive: -0.01,inactive: 0.022,inactive: -0.029,inactive: -0.047,inactive: -0.092,inactive: -0.004,inactive: -0.052,inactive: -0.011,inactive: -0.004,inactive: 0.01,inactive: 0.01,inactive: -0.008,inactive: -0.007,inactive: 0.001,inactive: 0.015,inactive: 0.043,inactive: 0.006
CDV3 (UniProt Q9UKY7),inactive: -0.032,inactive: -0.006,inactive: 0.038,inactive: -0.01,inactive: 0.014,inactive: 0.029,inactive: 0.011,inactive: -0.04,inactive: 0.011,inactive: -0.038,inactive: -0.004,inactive: 0.016,inactive: -0.008,inactive: 0.014,inactive: -0.034,inactive: 0.025,inactive: 0.055,inactive: -0.016,inactive: -0.032,inactive: 0.022
CDC5L (UniProt Q99459),inactive: 0.004,inactive: 0.003,inactive: -0.02,inactive: 0.066,inactive: 0.011,inactive: -0.076,inactive: 0.009,inactive: 0.006,inactive: -0.04,inactive: -0.01,inactive: 0.006,inactive: 0.01,inactive: 0.009,inactive: -0.023,inactive: 0.021,inactive: -0.014,inactive: 0.017,inactive: 0.026,inactive: 0.018,inactive: 0.046
CES2 isoform 4 (UniProt O00748),inactive: 0.027,inactive: 0.32,inactive: 0.079,inactive: -0.003,inactive: 0.021,inactive: 0.016,inactive: 0,inactive: 0.015,inactive: 0.154,inactive: 0.036,inactive: -0.073,inactive: -0.115,inactive: 0.065,inactive: 0.098,inactive: -0.087,inactive: -0.042,inactive: 0.05,inactive: -0.029,inactive: 0.033,inactive: 0.001
CDK2AP1 (UniProt O14519),inactive: -0.116,inactive: -0.032,inactive: -0.002,inactive: 0.004,inactive: -0.068,inactive: 0.024,inactive: -0.051,inactive: 0.023,inactive: -0.123,inactive: -0.046,inactive: 0.169,inactive: 0.062,inactive: -0.012,inactive: -0.03,inactive: -0.012,inactive: -0.044,inactive: 0.096,inactive: -0.119,inactive: -0.008,inactive: -0.077
CDK5 (UniProt Q00535),inactive: -0.094,inactive: 0.095,inactive: -0.031,inactive: -0.024,inactive: 0.03,inactive: 0.451,inactive: 0.014,inactive: 0.423,inactive: -0.008,inactive: -0.023,inactive: -0.013,inactive: 0.23,inactive: 0.022,active: 0.541,inactive: 0.019,inactive: -0.132,inactive: 0.003,inactive: 0.044,inactive: 0.05,inactive: -0.112

# Full records, quoted from the list. Order of values: log2 fold change [1]	log2 fold change [2]	log2 fold change [3]	log2 fold change [4]	log2 fold change [5]	log2 fold change [6]	log2 fold change [7]	log2 fold change [8]	log2 fold change [9]	log2 fold change [10]	log2 fold change [11]	log2 fold change [12]	log2 fold change [13]	log2 fold change [14]	log2 fold change [15]	log2 fold change [16]	log2 fold change [17]	log2 fold change [18]	log2 fold change [19]	log2 fold change [20]
# CDC27 isoform 2 (UniProt P30260) reads inactive: -0.032	inactive: 0.02	inactive: -0.025	inactive: -0.012	inactive: 0.003	inactive: -0.021	inactive: 0.012	inactive: 0.021	inactive: -0.062	inactive: 0.029	inactive: 0.041	inactive: -0.025	inactive: -0.024	inactive: 0.022	inactive: 0.01	inactive: -0.014	inactive: -0.016	inactive: 0.007	inactive: 0	inactive: 0.005
# CDK5 (UniProt Q00535) reads inactive: -0.094	inactive: 0.095	inactive: -0.031	inactive: -0.024	inactive: 0.03	inactive: 0.451	inactive: 0.014	inactive: 0.423	inactive: -0.008	inactive: -0.023	inactive: -0.013	inactive: 0.23	inactive: 0.022	active: 0.541	inactive: 0.019	inactive: -0.132	inactive: 0.003	inactive: 0.044	inactive: 0.05	inactive: -0.112
